No constants are given. Whether binding was seen depends on the method and setting. Binding seen in cells or lysates may run through a third protein. Binding can be weak; no strength is given. Sequences can lack the tags named with a protein.
Key:
[1] = target: T1, FLAG-CLDN5 (FLAG-tagged human full-length CLDN5) (human) (UniProt O00501); assay: co-IP; HEK-293 co-transfected with FLAG-CLDN5 or FLAG-CLDN5-ΔPDZBM and HA-DVL1 or HA-DVL1-ΔC7; IP with FLAG antibody, blot for FLAG, HA or endogenous ZO-1; 2% NP-40 buffer
T1 sequence: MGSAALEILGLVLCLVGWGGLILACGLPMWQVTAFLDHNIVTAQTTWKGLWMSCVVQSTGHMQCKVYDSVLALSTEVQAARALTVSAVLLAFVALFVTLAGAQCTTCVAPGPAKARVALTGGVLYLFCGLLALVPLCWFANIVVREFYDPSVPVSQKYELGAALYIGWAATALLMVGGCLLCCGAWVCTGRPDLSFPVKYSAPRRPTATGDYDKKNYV

[2] = target: T2, HA-DVL1-WT (human full-length DVL1) (human) (UniProt O14640); assay: co-IP; competition: HEK-293 co-transfected with FLAG-CLDN5, HA-DVL1-WT and increasing doses of HA-DVL1-CT plasmid; IP with FLAG antibody, blot for HA; 2% NP-40 buffer
T2 sequence: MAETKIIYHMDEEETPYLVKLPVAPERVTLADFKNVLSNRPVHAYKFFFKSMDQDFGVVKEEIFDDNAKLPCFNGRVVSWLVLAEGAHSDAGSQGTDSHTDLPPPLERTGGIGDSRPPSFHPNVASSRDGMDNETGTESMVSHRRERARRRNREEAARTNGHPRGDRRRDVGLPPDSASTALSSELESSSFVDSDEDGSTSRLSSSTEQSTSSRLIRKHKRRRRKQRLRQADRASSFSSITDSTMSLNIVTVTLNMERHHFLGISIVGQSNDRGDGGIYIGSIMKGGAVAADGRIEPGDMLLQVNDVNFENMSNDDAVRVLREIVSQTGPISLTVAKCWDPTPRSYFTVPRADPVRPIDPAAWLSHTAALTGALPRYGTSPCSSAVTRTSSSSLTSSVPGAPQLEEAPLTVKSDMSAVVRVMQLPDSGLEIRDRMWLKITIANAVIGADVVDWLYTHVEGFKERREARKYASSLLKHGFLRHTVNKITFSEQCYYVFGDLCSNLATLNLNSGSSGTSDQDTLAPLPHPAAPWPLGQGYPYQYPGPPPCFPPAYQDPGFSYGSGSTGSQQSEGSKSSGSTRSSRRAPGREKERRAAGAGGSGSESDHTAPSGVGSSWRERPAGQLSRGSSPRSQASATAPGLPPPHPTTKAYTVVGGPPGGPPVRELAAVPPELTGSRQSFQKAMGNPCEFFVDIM

[3] = target: FLAG-CLDN5-ΔPDZBM (CLDN5 lacking the last four amino acids) (human); assay: co-IP; HEK-293 co-transfected with FLAG-CLDN5 or FLAG-CLDN5-ΔPDZBM and HA-DVL1 or HA-DVL1-ΔC7; IP with FLAG antibody, blot for FLAG, HA or endogenous ZO-1; 2% NP-40 buffer

Question: “HA-DVL1-ΔC7 (DVL1 lacking the 7 C-terminal amino acids, PDZ-BM) (human) (domain or fragment)” was tested. Which binding [1] did it give?
Answer: binds

Question: With “HA-DVL1-CT (last 169 amino acids of the C-terminus of DVL1) (human) (domain or fragment)” as the molecule, how does the binding [2] read?
Answer: binds

B1: HA-DVL1-WT (human full-length DVL1) (protein, UniProt O14640 1-695)
chain: T2 sequence
Question: How did the binding [3] turn out when B1 was run?
Answer: binds
